Four substances from publication PMC9309721 can be followed below.

The chains behind the UniProt entries cited, without tags or fusion partners. Where a name states a change or a piece, a line headed by the entry shows the natural chain unless it says otherwise.
UniProt Q00613: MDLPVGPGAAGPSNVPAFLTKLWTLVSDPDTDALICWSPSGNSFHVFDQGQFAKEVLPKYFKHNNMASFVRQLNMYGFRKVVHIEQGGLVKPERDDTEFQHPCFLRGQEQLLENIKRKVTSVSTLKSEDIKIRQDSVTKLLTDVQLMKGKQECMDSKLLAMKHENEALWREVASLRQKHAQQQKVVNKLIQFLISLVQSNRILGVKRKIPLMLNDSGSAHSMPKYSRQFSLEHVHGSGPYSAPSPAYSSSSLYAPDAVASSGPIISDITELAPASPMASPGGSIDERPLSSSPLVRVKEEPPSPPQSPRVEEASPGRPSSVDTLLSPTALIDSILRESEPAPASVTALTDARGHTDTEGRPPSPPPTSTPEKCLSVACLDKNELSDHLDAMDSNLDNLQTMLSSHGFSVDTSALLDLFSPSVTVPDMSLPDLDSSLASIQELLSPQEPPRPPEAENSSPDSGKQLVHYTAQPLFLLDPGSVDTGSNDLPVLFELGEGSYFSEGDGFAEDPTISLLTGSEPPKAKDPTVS
UniProt P50750: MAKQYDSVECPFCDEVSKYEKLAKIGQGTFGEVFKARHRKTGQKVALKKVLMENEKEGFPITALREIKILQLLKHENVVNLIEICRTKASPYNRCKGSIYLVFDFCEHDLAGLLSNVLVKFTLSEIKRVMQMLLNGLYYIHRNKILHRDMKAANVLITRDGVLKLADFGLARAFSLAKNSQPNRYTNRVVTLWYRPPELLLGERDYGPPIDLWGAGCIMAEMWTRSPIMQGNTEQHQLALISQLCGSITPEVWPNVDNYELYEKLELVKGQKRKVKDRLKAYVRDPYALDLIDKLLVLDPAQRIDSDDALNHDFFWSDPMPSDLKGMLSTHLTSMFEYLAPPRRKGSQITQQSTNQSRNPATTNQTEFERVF
UniProt Q00403: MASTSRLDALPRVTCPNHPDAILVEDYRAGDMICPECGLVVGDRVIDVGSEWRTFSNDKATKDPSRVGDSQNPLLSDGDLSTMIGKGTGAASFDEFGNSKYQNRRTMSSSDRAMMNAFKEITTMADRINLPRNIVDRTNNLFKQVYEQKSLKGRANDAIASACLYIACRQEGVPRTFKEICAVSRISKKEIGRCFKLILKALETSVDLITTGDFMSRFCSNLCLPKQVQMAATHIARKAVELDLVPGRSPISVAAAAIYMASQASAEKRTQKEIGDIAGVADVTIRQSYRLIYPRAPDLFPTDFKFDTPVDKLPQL

Test [1] concerns the target FLAG-tagged WT-HSF1 (human) (UniProt Q00613). Kind of test: co-IP; HEK-293 cells transfected for 48 h with FLAG-tagged WT or mutant HSF1; lysates in IP lysis buffer (20 mM Tris, 150 mM NaCl, 1 mM EDTA, 1 mM EGTA, 1% Triton X-100) immunoprecipitated with FLAG resin beads or control mouse IgG beads; immunoblot.
The target in test [2] is FLAG-tagged T527A-HSF1 (human) (UniProt Q00613). The test is described as above.
Test [3] has as its target FLAG-tagged WT-HSF1 (human) (UniProt Q00613). Kind of test: cross-linking + SEC; HEK-293 cells expressing WT-HSF1 without AKT1, fixed with EGS; RIPA lysate on Superdex 200 Increase 10/300 GL in 50 mM Tris pH 8.0, 150 mM NaCl, 1% NP-40, 4 °C; fractions immunoblotted for HSF1. Background: In western blotting, separated proteins are transferred to a membrane and probed.
Test [4] addresses T142A-HSF1 (human) (UniProt Q00613). Kind of test: cross-linking; HEK-293 cells transfected for 48 h with WT- or T142A-HSF1 with or without AKT1 or CK2; cells fixed with 1 mM EGS for 30 min at RT, quenched with 10 mM Tris pH 7.5, RIPA lysate, SDS/PAGE, immunoblot for HSF1 trimers.
The target is the same in test [5]. Kind of test: cross-linking + SEC; HEK-293 cells co-expressing AKT1 and WT- or T142A-HSF1, fixed with EGS; RIPA lysate on Superdex 200 Increase 10/300 GL in 50 mM Tris pH 8.0, 150 mM NaCl, 1% NP-40, 4 °C; fractions immunoblotted for HSF1.

These are yes or no findings as the source states them, for the method shown. In cells and extracts the contact can be indirect. Some binding calls cover weakened binding; strength is not graded here.

CDK9 (from UniProt P50750 1-372): the figures for the binding entry in test [1] and in test [2] were “binds” and “no binding”, respectively.
With “FLAG-tagged WT-HSF1 (from UniProt Q00613 1-529)”, the binding entry in test [3] was “no binding (condition: cells without co-expressed AKT1)”.
In the case of T142A-HSF1 (from UniProt Q00613 1-529), the binding result in the test with T142A-HSF1 (human) [4] and with T142A-HSF1 (human) [5] was “no binding” in each case.
Consider TFIIB (from UniProt Q00403 1-316), for which the binding result in test [1] is “binds”; in test [2], “no binding”.
